The supplement of paper PMC10849652
This is one part of the list.

By UniProt entry, the sequences of proteins in these tests, tags left out. Where a name states a change or a piece, a line headed by the entry shows the natural chain unless it says otherwise.
UniProt P52732: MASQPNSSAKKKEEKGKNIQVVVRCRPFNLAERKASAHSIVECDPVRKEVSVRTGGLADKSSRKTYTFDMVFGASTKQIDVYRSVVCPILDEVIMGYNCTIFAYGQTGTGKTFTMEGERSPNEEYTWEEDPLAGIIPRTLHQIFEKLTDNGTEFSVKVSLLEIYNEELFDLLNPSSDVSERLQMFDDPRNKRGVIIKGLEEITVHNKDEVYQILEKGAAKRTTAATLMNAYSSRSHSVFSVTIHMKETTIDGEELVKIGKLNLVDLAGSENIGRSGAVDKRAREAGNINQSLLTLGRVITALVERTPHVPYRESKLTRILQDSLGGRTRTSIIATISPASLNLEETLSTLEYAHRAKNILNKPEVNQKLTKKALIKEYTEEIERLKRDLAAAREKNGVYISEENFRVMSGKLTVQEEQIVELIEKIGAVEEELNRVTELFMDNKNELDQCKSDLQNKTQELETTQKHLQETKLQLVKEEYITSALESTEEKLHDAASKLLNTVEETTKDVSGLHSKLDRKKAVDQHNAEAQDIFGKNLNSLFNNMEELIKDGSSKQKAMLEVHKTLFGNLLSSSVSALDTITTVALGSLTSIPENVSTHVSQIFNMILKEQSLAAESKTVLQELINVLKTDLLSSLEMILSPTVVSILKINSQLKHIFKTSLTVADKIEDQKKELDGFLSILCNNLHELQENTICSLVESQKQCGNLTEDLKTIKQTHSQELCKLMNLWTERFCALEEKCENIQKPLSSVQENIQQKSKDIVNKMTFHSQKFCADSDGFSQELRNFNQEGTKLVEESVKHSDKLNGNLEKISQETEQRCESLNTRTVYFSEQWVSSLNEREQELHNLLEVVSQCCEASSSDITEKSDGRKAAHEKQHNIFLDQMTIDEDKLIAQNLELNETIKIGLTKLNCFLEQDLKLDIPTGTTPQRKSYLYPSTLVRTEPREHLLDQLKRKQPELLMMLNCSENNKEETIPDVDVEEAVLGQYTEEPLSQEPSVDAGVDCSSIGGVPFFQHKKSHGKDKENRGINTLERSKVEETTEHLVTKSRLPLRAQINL
UniProt Q16773: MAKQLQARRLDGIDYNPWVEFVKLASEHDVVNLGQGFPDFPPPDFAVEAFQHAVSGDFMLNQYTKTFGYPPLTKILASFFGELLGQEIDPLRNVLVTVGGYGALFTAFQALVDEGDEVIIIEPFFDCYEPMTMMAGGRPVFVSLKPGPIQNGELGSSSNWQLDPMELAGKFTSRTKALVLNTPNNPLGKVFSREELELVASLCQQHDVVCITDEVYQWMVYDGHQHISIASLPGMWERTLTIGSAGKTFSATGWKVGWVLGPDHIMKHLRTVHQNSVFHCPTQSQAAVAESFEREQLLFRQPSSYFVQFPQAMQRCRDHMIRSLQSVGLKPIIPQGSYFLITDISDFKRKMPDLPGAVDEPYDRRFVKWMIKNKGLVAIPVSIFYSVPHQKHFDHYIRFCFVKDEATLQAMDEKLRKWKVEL
UniProt Q9Y664: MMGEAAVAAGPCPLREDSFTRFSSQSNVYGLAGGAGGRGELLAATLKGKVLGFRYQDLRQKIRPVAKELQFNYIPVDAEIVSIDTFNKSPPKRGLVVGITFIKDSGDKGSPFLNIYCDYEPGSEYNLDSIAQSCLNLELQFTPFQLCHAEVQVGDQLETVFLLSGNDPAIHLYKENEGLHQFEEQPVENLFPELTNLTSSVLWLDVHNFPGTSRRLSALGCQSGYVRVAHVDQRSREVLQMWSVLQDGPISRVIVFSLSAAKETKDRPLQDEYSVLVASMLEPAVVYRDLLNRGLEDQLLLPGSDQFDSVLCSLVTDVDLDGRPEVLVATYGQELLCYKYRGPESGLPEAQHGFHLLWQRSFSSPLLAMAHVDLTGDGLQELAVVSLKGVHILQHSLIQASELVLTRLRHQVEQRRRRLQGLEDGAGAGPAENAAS
UniProt Q8IZA0: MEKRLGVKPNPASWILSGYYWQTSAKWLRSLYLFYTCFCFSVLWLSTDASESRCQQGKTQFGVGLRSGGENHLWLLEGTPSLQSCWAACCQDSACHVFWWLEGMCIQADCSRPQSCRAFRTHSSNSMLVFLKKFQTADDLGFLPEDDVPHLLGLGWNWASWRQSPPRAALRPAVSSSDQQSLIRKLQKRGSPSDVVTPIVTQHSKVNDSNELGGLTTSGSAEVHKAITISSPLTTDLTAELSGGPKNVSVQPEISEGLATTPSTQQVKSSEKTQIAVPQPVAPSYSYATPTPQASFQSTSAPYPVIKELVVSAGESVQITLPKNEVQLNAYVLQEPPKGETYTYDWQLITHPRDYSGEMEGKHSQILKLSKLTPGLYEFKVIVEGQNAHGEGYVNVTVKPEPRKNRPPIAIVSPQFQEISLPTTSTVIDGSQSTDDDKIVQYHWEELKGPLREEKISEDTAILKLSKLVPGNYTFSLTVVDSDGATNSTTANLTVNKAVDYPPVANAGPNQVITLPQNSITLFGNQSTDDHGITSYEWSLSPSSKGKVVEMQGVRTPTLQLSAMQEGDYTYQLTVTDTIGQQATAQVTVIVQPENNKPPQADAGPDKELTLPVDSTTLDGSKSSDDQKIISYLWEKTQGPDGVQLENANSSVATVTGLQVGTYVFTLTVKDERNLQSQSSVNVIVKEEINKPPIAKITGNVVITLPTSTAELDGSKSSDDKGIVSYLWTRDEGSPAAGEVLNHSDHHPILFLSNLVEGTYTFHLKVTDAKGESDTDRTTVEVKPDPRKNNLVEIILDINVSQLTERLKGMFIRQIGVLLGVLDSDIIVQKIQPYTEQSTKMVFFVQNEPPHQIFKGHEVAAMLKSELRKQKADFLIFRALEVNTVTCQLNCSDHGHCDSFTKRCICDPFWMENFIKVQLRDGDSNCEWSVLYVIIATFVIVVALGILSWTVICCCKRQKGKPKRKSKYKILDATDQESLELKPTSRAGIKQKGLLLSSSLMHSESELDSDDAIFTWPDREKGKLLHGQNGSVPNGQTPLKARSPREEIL
UniProt Q9H1H9: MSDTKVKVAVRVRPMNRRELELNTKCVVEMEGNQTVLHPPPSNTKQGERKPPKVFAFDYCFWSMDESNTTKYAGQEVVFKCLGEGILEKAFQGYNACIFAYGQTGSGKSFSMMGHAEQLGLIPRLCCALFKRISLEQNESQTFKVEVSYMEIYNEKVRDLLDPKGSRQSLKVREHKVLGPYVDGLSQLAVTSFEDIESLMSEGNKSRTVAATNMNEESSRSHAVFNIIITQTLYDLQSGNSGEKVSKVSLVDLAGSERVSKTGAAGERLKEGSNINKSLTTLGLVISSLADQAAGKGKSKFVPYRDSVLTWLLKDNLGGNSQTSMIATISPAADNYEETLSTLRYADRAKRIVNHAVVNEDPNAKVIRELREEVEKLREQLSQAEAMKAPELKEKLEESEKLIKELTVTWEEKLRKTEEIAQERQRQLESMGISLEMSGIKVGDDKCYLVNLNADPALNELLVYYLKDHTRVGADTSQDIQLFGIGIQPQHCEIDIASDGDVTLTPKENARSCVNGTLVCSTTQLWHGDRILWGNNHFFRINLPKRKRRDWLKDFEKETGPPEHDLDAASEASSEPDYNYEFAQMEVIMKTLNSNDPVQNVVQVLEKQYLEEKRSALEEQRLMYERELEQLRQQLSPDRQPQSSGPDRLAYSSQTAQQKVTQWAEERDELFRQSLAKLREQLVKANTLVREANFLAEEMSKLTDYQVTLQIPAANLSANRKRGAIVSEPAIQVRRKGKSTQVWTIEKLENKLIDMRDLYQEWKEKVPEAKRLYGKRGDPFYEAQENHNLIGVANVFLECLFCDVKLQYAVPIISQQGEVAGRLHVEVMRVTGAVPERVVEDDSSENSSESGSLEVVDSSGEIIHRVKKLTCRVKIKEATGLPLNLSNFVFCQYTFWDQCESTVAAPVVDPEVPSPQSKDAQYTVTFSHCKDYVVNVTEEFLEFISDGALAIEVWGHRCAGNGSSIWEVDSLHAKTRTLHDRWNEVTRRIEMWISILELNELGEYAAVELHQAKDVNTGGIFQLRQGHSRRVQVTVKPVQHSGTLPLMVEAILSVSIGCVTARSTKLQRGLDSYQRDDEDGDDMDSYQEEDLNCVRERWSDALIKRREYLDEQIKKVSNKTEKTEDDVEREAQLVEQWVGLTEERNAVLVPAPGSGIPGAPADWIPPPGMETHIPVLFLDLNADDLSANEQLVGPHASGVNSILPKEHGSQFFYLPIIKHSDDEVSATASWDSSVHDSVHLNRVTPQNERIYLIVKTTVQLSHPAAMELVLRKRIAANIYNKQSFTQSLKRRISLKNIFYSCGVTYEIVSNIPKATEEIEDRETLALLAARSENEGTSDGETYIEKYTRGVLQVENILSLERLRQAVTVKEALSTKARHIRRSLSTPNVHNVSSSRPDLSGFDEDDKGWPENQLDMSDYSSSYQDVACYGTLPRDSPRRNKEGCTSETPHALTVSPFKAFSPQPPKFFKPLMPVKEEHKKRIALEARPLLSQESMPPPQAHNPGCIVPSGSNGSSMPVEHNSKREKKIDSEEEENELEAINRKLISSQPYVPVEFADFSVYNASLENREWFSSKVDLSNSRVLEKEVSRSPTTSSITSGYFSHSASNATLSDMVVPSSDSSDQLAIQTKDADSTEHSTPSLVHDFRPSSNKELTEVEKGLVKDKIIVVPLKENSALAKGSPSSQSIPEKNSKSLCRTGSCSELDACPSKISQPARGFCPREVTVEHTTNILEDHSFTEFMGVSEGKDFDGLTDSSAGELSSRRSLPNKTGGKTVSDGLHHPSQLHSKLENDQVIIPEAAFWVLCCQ
UniProt Q06136: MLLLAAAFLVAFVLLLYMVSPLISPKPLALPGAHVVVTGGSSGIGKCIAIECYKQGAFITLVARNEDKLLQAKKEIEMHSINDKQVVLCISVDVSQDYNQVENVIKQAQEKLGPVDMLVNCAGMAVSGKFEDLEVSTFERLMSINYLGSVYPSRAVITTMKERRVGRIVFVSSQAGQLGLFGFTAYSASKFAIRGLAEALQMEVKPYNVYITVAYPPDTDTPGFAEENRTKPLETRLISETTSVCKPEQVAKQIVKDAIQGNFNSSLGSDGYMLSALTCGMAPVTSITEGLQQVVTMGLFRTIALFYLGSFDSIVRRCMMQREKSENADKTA
UniProt Q9NS87: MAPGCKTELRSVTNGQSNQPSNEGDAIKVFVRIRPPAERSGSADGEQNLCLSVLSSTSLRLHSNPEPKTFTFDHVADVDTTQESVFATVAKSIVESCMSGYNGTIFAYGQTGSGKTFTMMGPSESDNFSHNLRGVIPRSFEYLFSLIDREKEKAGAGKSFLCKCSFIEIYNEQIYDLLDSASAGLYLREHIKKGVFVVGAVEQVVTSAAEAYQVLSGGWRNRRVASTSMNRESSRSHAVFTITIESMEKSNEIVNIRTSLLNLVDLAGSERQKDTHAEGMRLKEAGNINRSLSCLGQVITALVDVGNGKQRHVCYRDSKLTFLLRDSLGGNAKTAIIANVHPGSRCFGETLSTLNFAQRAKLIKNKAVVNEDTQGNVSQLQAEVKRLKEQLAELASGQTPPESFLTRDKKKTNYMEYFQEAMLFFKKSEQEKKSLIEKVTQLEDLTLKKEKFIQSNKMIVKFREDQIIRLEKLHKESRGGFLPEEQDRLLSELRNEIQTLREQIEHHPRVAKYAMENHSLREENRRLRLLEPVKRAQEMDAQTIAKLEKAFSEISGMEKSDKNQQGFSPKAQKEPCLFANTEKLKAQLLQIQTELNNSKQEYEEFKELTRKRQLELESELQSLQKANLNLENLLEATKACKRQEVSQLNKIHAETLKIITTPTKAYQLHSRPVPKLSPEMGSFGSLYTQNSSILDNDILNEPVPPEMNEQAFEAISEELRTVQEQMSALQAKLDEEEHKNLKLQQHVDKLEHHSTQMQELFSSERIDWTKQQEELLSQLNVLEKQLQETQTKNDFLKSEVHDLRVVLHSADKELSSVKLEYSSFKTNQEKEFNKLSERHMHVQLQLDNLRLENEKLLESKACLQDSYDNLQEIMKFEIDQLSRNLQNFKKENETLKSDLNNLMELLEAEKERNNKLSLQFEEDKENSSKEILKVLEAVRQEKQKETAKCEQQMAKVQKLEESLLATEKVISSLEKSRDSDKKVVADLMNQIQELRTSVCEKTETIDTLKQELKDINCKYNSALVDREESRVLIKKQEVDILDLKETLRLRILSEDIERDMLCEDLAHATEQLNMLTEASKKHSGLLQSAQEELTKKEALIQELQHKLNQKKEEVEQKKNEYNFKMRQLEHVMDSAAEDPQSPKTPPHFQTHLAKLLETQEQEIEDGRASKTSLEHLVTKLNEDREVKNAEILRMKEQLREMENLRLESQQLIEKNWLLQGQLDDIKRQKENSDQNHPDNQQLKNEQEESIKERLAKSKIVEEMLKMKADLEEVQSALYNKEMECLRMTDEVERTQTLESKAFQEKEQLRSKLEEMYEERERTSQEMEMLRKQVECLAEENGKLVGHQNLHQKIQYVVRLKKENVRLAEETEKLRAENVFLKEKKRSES

These targets were tested with Cc1cc(Nc2cc(N3CCN(C)CC3)nc(Sc3ccc(NC(=O)C4CC4)cc3)n2)n[nH]1 [tozasertib] (assay: log2 fold change, soluble protein after heating vs DMSO (PISA); higher = thermal stabilisation; K562 lysate, 10 uM; active = over 0.2 and 3.5 SD of the protein, either way, in both replicates (recomputed)).
Procedure, shortened: (§1)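 Pellets of K562 cells were dounce-homogenised in PBS pH 7.4 with 1 mM MgCl2, and the crude extract was held at 1 mg/mL protein for a 30 min treatment with 10 μM compound. Aliquots were heated for 3 min over 48°C-58°C and pooled before NP-40 was added to 0.5% at 4°C. The supernatant from 21,000xg for 90 min was quantified by TMTpro 16plex LC-MS/MS with channel sums equalised. Values are reported from duplicates as log-two fold change in thermal stability relative to solvent controls.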
With KIF4B (UniProt Q2VIQ3) the log2 fold change was inactive: -0.033.
For KIF21A isoform 5 (UniProt Q7Z4S6), the log2 fold change was inactive: 0.005.
In the case of KIF23 isoform 2 (UniProt Q02241), the log2 fold change is reported as inactive: -0.027.
With KIF5A (UniProt Q12840) the log2 fold change was inactive: 0.017.
In the case of KIF11 (UniProt P52732), the log2 fold change is reported as inactive: 0.006.
With KNOP1 (UniProt Q1ED39) the log2 fold change was inactive: -0.085.
For KIAA0100 (UniProt Q14667), the log2 fold change was inactive: 0.077.
For KLHL36 (UniProt Q8N4N3), the log2 fold change was inactive: 0.014.
For KPNA2 (UniProt P52292), the log2 fold change was inactive: 0.017.
With LARP1 (UniProt Q6PKG0) the log2 fold change was inactive: 0.007.
For KYAT1 (UniProt Q16773), the log2 fold change was inactive: -0.019.
In the case of KLHL20 (UniProt Q9Y2M5), the log2 fold change is reported as inactive: -0.025.
With LAMP2 (UniProt P13473) the log2 fold change was inactive: -0.05.
KIF4A (UniProt O95239) was tested, and the log2 fold change was inactive: 0.021.
For KNSTRN (UniProt Q9Y448), the log2 fold change was inactive: 0.026.
For KLC4 isoform 3 (UniProt Q9NSK0), the log2 fold change was inactive: -0.021.
In the case of KHK isoform 2 (UniProt P50053), the log2 fold change is reported as inactive: 0.018.
For KLF16 (UniProt Q9BXK1), the log2 fold change was inactive: -0.244.
In the case of KPTN (UniProt Q9Y664), the log2 fold change is reported as inactive: 0.002.
In the case of KIAA0319L (UniProt Q8IZA0), the log2 fold change is reported as inactive: 0.026.
KIF13A isoform 4 (UniProt Q9H1H9) was tested, and the log2 fold change was inactive: 0.051.
KIAA1324L (UniProt A8MWY0) was tested, and the log2 fold change was inactive: 0.002.
For KMT2D isoform 3 (UniProt O14686), the log2 fold change was inactive: 0.03.
In the case of KNTC1 (UniProt P50748), the log2 fold change is reported as inactive: 0.033.
KIN (UniProt O60870) was tested, and the log2 fold change was inactive: -0.011.
With KIAA1522 isoform 2 (UniProt Q9P206) the log2 fold change was inactive: 0.052.
For KIAA1191 (UniProt Q96A73), the log2 fold change was inactive: -0.012.
In the case of KPNA6 (UniProt O60684), the log2 fold change is reported as inactive: 0.005.
KIF5B (UniProt P33176) was tested, and the log2 fold change was inactive: -0.011.
With KHDC4 (UniProt Q7Z7F0) the log2 fold change was inactive: -0.068.
KDSR (UniProt Q06136) was tested, and the log2 fold change was inactive: -0.017.
KLC1 isoform 6 (UniProt Q07866) was tested, and the log2 fold change was inactive: -0.004.
In the case of LAMTOR4 (UniProt Q0VGL1), the log2 fold change is reported as inactive: -0.043.
LANCL1 (UniProt O43813) was tested, and the log2 fold change was inactive: 0.013.
With LAMTOR3 (UniProt Q9UHA4) the log2 fold change was inactive: -0.03.
LAP3 (UniProt P28838) was tested, and the log2 fold change was inactive: -0.126.
With KIF15 (UniProt Q9NS87) the log2 fold change was inactive: 0.008.
For KEAP1 (UniProt Q14145), the log2 fold change was inactive: -0.017.
For KYAT3 (UniProt Q6YP21), the log2 fold change was inactive: 0.025.

Each target was assayed with Cc1ccc(-n2nc(C(C)(C)C)cc2NC(=O)Nc2ccc(OCCN3CCOCC3)c3ccccc23)cc1 [doramapimod] in the same assay as above.
Procedure, shortened: as §1
KIF4B (UniProt Q2VIQ3) was tested, and the log2 fold change was inactive: 0.015.
In the case of KIF21A isoform 5 (UniProt Q7Z4S6), the log2 fold change is reported as inactive: 0.019.
KIF23 isoform 2 (UniProt Q02241) was tested, and the log2 fold change was inactive: 0.019.
KIF5A (UniProt Q12840) was tested, and the log2 fold change was inactive: -0.001.
KIF11 (UniProt P52732) was tested, and the log2 fold change was inactive: 0.014.
With KNOP1 (UniProt Q1ED39) the log2 fold change was inactive: 0.1.
KIAA0100 (UniProt Q14667) was tested, and the log2 fold change was inactive: 0.079.
For KLHL36 (UniProt Q8N4N3), the log2 fold change was inactive: -0.129.
In the case of KPNA2 (UniProt P52292), the log2 fold change is reported as inactive: 0.003.
With LARP1 (UniProt Q6PKG0) the log2 fold change was inactive: -0.021.
With KYAT1 (UniProt Q16773) the log2 fold change was inactive: -0.019.
KLHL20 (UniProt Q9Y2M5) was tested, and the log2 fold change was inactive: -0.023.
In the case of LAMP2 (UniProt P13473), the log2 fold change is reported as inactive: 0.021.
For KIF4A (UniProt O95239), the log2 fold change was inactive: 0.
In the case of KNSTRN (UniProt Q9Y448), the log2 fold change is reported as inactive: -0.052.
In the case of KLC4 isoform 3 (UniProt Q9NSK0), the log2 fold change is reported as inactive: 0.034.
With KHK isoform 2 (UniProt P50053) the log2 fold change was inactive: 0.031.
For KLF16 (UniProt Q9BXK1), the log2 fold change was inactive: 0.196.
With KPTN (UniProt Q9Y664) the log2 fold change was inactive: 0.049.
For KIAA0319L (UniProt Q8IZA0), the log2 fold change was inactive: -0.043.
In the case of KIF13A isoform 4 (UniProt Q9H1H9), the log2 fold change is reported as inactive: 0.019.
With KIAA1324L (UniProt A8MWY0) the log2 fold change was inactive: 0.008.
In the case of KMT2D isoform 3 (UniProt O14686), the log2 fold change is reported as inactive: 0.009.
KNTC1 (UniProt P50748) was tested, and the log2 fold change was inactive: 0.028.
KIN (UniProt O60870) was tested, and the log2 fold change was inactive: 0.017.
For KIAA1522 isoform 2 (UniProt Q9P206), the log2 fold change was inactive: 0.018.
For KIAA1191 (UniProt Q96A73), the log2 fold change was inactive: 0.
KPNA6 (UniProt O60684) was tested, and the log2 fold change was inactive: 0.056.
For KIF5B (UniProt P33176), the log2 fold change was inactive: 0.011.
With KHDC4 (UniProt Q7Z7F0) the log2 fold change was inactive: 0.024.
With KDSR (UniProt Q06136) the log2 fold change was inactive: 0.011.
For KLC1 isoform 6 (UniProt Q07866), the log2 fold change was inactive: 0.026.
With LAMTOR4 (UniProt Q0VGL1) the log2 fold change was inactive: 0.008.
With LANCL1 (UniProt O43813) the log2 fold change was inactive: 0.022.
With LAMTOR3 (UniProt Q9UHA4) the log2 fold change was inactive: 0.018.
With LAP3 (UniProt P28838) the log2 fold change was inactive: 0.02.
With KIF15 (UniProt Q9NS87) the log2 fold change was inactive: 0.006.
In the case of KEAP1 (UniProt Q14145), the log2 fold change is reported as inactive: 0.01.
With KYAT3 (UniProt Q6YP21) the log2 fold change was inactive: -0.001.
